Test results published in PMC7819943, “Rice protein-binding microarrays: a tool to detect cis-acting elements near promoter regions in rice”.
Some of the results follow.

target: T1, OsSMF1 (Oryza sativa, UniProt Q6ZLB0 1-436); experiment: protein-binding microarray (RPBM); PBS, 2% BSA, 51.3 ng/ul salmon testes DNA, 50 uM zinc acetate, 200 nM TF, 25 C, 1 h; high values mean tight binding; conditions: protein: recombinant; tags: N-terminal polyhistidine and DsRed monomer fusion (pET32a); chain copies: 2; label: CyDye5-dUTP incorporated in the synthesized complementary strand; 3' TTTTT single-stranded linker to array surface; dsDNA, one strand shown
T1 sequence: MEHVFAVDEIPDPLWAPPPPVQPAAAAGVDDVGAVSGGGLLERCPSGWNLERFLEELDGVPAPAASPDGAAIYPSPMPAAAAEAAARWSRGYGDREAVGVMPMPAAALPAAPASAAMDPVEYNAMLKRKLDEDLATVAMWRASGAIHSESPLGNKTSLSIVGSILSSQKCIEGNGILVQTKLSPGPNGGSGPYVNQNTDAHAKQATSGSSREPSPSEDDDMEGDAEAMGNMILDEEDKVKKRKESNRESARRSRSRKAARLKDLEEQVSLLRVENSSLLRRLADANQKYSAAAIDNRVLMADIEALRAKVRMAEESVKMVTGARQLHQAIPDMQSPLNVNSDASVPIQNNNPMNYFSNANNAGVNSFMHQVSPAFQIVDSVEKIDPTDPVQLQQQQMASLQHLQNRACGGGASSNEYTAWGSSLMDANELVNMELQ
Summary of the method: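 Transcription factors were made in E. coli BL21-CodonPlus as N-terminal fusions to a polyhistidine tag and DsRed, then purified on Ni–NTA. After primer extension with Cy5-dUTP and blocking with 2% BSA, a custom Agilent array was exposed for 1 h at 25 °C to 200 nM protein in PBS, 2% BSA, salmon testes DNA and 50 µM zinc acetate. Washed arrays were scanned on an Axon 4000B, and the binding signal is per-feature fluorescence intensity in arbitrary units.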

| Sequence | binding signal |
| --- | --- |
| GAATTTTGCACTCACAAAACTGCATACGACATGATCCTGTCGGAGTCACCTAGTGCAG | 9890 fluorescence intensity (a.u.) |
| CATTGCTGTTTCCAAATCAGCTTGTACTACTACTACTTGTCGGAGTCACCTAGTGCAG | 3560 fluorescence intensity (a.u.) |
| CTAAATCTAGCAAGTTATATATTATAAACGTGAGTTTAAACGGAGTCACCTAGTGCAG | 14000 fluorescence intensity (a.u.) |
| CCTGCCATGACATATCAGCTCAGCTCAGCTCGACTTGTATCGGAGTCACCTAGTGCAG | 3250 fluorescence intensity (a.u.) |
| TTGCTGATGAAGATGCGCTTGTTGCTGACGGGAGAGCTGACGGAGTCACCTAGTGCAG | 8810 fluorescence intensity (a.u.) |
| CCAAGTCGAAGCGGCGACGATGATCCAATCCGTGTTCAGGCGGAGTCACCTAGTGCAG | 5530 fluorescence intensity (a.u.) |
| TGCAGTAGTTGATGTGTGGTGTGTGTCAGATAAATCTGATCGGAGTCACCTAGTGCAG | 3850 fluorescence intensity (a.u.) |
| GCGGTTTCCTAGTTGACTGACCAAACAATTCATATATATTCGGAGTCACCTAGTGCAG | 6140 fluorescence intensity (a.u.) |
| GATTTTCTCAACAATATAGATACAGAGGCGAAGCCACGTGCGGAGTCACCTAGTGCAG | 3390 fluorescence intensity (a.u.) |
| CATGTGTGCCAAATTTGGTTGTTTGTCACGTTGCATTCCACGGAGTCACCTAGTGCAG | 3810 fluorescence intensity (a.u.) |
| GCCGACAAGAACCGCCCCTACATTGACTCGGCTTTGCCCTCGGAGTCACCTAGTGCAG | 3180 fluorescence intensity (a.u.) |
| AGGAATTGGTGGATGCGGTGAGGGGCTACGGGGTGGAAGACGGAGTCACCTAGTGCAG | 35600 fluorescence intensity (a.u.) |
| GCCCATGACTTCGTGATAAATACTAATAAATAGCCCATTACGGAGTCACCTAGTGCAG | 23200 fluorescence intensity (a.u.) |
| ACACACTTAAAGTACCAACGAAGCCATCAACCAGACAATTCGGAGTCACCTAGTGCAG | 14200 fluorescence intensity (a.u.) |
| AAAATAATTGCTTGAGGTTGCTCTAAGAAAATTGAACAGCCGGAGTCACCTAGTGCAG | 25800 fluorescence intensity (a.u.) |
| CGTCGAGGAGAGCCACCTCAGCTTCTTCCAGCGCTGGTGGCGGAGTCACCTAGTGCAG | 5050 fluorescence intensity (a.u.) |
| TTCAACGGCGCGTGCCGACGTGGCCGCTGCGGCGTGCGTGCGGAGTCACCTAGTGCAG | 10300 fluorescence intensity (a.u.) |
| GTTATCCGCGTGGATCCAGTTCGCTCGATCCGGTGTTTGTCGGAGTCACCTAGTGCAG | 4140 fluorescence intensity (a.u.) |
| CTCAACGAGTTCTTCCGCCGCACCTCAACGCGTCACCCCTCGGAGTCACCTAGTGCAG | 4550 fluorescence intensity (a.u.) |
| CGTGCTCTCTGAGCGCGTATACCTAATACCTCATATACACCGGAGTCACCTAGTGCAG | 4860 fluorescence intensity (a.u.) |
| GATTTCTTAGCACTAATGACACATCATTAGACCAGTGTTCCGGAGTCACCTAGTGCAG | 4380 fluorescence intensity (a.u.) |

| Sequence | binding signal |
| --- | --- |
| CCTGATTCACTATCGAGCTCCCGACGGCCACCTCGTCGACCGGAGTCACCTAGTGCAG | 3180 fluorescence intensity (a.u.) |
| GTGGGAACGGCCTGGCACTACGTGGGCCGTGGCCCATAGGCGGAGTCACCTAGTGCAG | 3140 fluorescence intensity (a.u.) |
| CCATTTCAACAGTTAATTTAGGCTATTTTGGCTTCAATCCCGGAGTCACCTAGTGCAG | 18600 fluorescence intensity (a.u.) |
| ACAACCACTTTTAACCCAAAGACCAAGAAATAATTATTATCGGAGTCACCTAGTGCAG | 31400 fluorescence intensity (a.u.) |
| TGGAAGTATACGAGTGAGCCACGTGCTCTGCTTTCCTTCTCGGAGTCACCTAGTGCAG | 3960 fluorescence intensity (a.u.) |
| GACAACGTGGGGCCACGCGTACCACGGATGGAGTACAGTCCGGAGTCACCTAGTGCAG | 3660 fluorescence intensity (a.u.) |
| ATAAGATATGCAGCTGACATGTGGACCCCACATGCTTTGCCGGAGTCACCTAGTGCAG | 4140 fluorescence intensity (a.u.) |
| ATGTGTTTGGAGCTTCGTGGTGCTCTGTTCTGCGCGCGTGCGGAGTCACCTAGTGCAG | 3320 fluorescence intensity (a.u.) |
| TATTACTGTACGGAGTATTATCCATGACGAGTATAGGTACCGGAGTCACCTAGTGCAG | 3680 fluorescence intensity (a.u.) |
| GAGAGAGGGAATGGCATGTGGGGCCTATGTGGACCCCACCCGGAGTCACCTAGTGCAG | 5440 fluorescence intensity (a.u.) |
| GAATAAGCGATGTTAACACTGGCAGCGGCTGTGCATGTAGCGGAGTCACCTAGTGCAG | 37500 fluorescence intensity (a.u.) |
| CCAATTCACTCCACCATACTGTTGGCACCTATGATAGAACCGGAGTCACCTAGTGCAG | 3430 fluorescence intensity (a.u.) |
| GCTGGGATTGCCCGCGTGGAGGCGACTCAGCCGTCGGATCCGGAGTCACCTAGTGCAG | 3720 fluorescence intensity (a.u.) |
| TAGCTAACTTAGAGATAGATTAGCATGTATGACACATCAACGGAGTCACCTAGTGCAG | 4500 fluorescence intensity (a.u.) |
| GCCCTAGGGATGACATCATCAGTCGGTTGATGGAGCAGTACGGAGTCACCTAGTGCAG | 7440 fluorescence intensity (a.u.) |
| CTGAAGAATCTGTCTGTTTGCTGACTACAATGTTCTGTTTCGGAGTCACCTAGTGCAG | 4170 fluorescence intensity (a.u.) |
| GGTTGTACTATGCCAATTTGAACCAGCTGTCGATTTATGTCGGAGTCACCTAGTGCAG | 3210 fluorescence intensity (a.u.) |
| AAATTTATGCACACGTGTAGCGATCTCCTAGTCCTGATCGCGGAGTCACCTAGTGCAG | 11400 fluorescence intensity (a.u.) |
| TATTTTGTAATCTCTCTCCTCCACGTAAGTTTATAGTAGGCGGAGTCACCTAGTGCAG | 5960 fluorescence intensity (a.u.) |
| GGTCTAGCCTTAAGCTCGAACGCGGGGTGGTGGTTGTACCCGGAGTCACCTAGTGCAG | 3430 fluorescence intensity (a.u.) |
| AACCTGCGCGCGCTGACGTGTCGCGGTCGCCCGCGACTTCCGGAGTCACCTAGTGCAG | 8660 fluorescence intensity (a.u.) |

Looked up above:
binding signal, GGTCTAGCCTTAAGCTCGAACGCGGGGTGGTGGTTGTACCCGGAGTCACCTAGTGCAG is entered as 3430 fluorescence intensity (a.u.)
binding signal, TATTTTGTAATCTCTCTCCTCCACGTAAGTTTATAGTAGGCGGAGTCACCTAGTGCAG is entered as 5960 fluorescence intensity (a.u.)
binding signal, GCCCTAGGGATGACATCATCAGTCGGTTGATGGAGCAGTACGGAGTCACCTAGTGCAG is entered as 7440 fluorescence intensity (a.u.)
